Test results taken from patent US20210040206A1.
Results are given in words; binding and its absence hold for the method and conditions named. Some binding calls cover weakened binding; strength is not graded here.

Chains of the proteins cited; added tags and fusions are not shown. Lines headed by an entry give the natural chain unless they say otherwise; changes in a name come on top.
UniProt P78324: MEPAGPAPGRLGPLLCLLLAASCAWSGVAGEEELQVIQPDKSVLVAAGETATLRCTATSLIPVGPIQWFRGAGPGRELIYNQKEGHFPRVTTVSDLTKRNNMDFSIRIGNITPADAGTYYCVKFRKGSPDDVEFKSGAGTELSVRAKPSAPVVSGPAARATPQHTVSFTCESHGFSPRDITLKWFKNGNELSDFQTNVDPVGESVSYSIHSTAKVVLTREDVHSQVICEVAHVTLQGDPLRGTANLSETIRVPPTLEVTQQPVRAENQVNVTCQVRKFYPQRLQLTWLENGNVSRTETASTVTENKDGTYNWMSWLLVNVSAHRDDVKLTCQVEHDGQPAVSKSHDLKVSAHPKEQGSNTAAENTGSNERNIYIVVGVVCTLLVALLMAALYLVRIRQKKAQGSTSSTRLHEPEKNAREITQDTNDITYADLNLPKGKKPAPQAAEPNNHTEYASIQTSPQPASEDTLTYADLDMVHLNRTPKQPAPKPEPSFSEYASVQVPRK

Tests used:
Assay in all cases: ELISA, SIRPa variant-mouse Fc immobilised at 0.5 ug/ml
[1] = molecular target: SIRPa V3 (SNP1 + 2 + 3 + 4 + 5 + 6) recombinant protein, extracellular domain fused with mouse Fc from IgG2a (human; mouse) (UniProt P78324)
[2] = molecular target: SIRPa V6 (SNP12 + 13) recombinant protein, extracellular domain fused with mouse Fc from IgG2a (human; mouse) (UniProt P78324)
[3] = molecular target: SIRPa V7 (SNP14 + ?) recombinant protein, extracellular domain fused with mouse Fc from IgG2a (human; mouse) (UniProt P78324)
[4] = molecular target: SIRPa V4 (SNP8) recombinant protein, extracellular domain fused with mouse Fc from IgG2a (human; mouse) (UniProt P78324)
[5] = molecular target: SIRPa V5 (SNP9 + 10 + 11) recombinant protein, extracellular domain fused with mouse Fc from IgG2a (human; mouse) (UniProt P78324)

binding [1]: binds | binding [2]: binds | binding [3]: binds | binding [4]: binds | binding [5]: binds
B1: in-house anti-human SIRPa v1 antibody (antibody, human IgG4, V domains shown)
VH: EVQLVQSGAEVKKPGESLRISCKASGYSFTSYWVHWVRQMPGKGLEWMGNIDPSDSDTHYSPSFQGHVTLSVDKSISTAYLQLSSLKASDTAMYYCVRGGTGTLAYFAYWGQGTLVTVSS
VL: DVVMTQSPLSLPVTLGQPASISCRSSQSLVHSYGNTYLYWFQQRPGQSPRLLIYRVSNRFSGVPDRFSGSGSGTDFTLKISRVEAEDVGVYYCFQGTHVPYTFGGGTKVEIK
